# Source: PubChem BioAssay AID2685 (National Center for Advancing Translational Sciences (NCATS), 2010)
# The other results are listed elsewhere or left out. Shown are side measurements of this screen, not its main read-out; they come without a call. Most of these compounds were active or inconclusive in the main read-out, so they are no random draw. Words in brackets tell the shape of the fitted curve; partial curves, single points and poor fits give uncertain potencies.
# Assay: qHTS Assay for Lipid Storage Modulators in Drosophila S3 Cells;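 on cell number change: cells counted by Cell Tracker Red CMTPX staining in the red channel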
# Settings: BODIPY lipid droplet fluorescence, 18-24 h; for cell number change: measured here: cell count max response, cells fed with added oleic acid
# Outline: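 Drosophila S3 cells loaded with oleic acid (400 uM, as added) and compounds at several concentrations; lipid droplets imaged by 488-nm laser-scanning cytometry, 500–530 nm intensity and object ratio to cell channel. Percent activity normalized to 20 uM Triacsin C.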
# [1] = measured here: lipid fluorescence (Fed channel) AC50, cells fed with added oleic acid
# [2] = measured here: cell number channel AC50, cells fed with added oleic acid
structure (smiles),measurement,setting,value
O=C(CSc1nnc(Cc2ccccc2)o1)Nc1ccc(Br)cn1,cell number change,,-28.3%
same,AC50,[1],"4.11 µM [falling, full curve]"
CN(CCOc1ccccc1)CCOc1ccccc1,cell number change,,-2.56%
same,AC50,[2],"6.51 µM [rising, single point]"
CC(C)OCCCn1c(-c2ccc(Br)cc2)c[nH]c1=S,cell number change,,-45.5%
same,AC50,[2],"29.1 µM [falling, single point]"
same,AC50,[1],"29.1 µM [falling, single point]"
CN1CCN(C(=O)CCNC(=O)Cn2cnc3ccccc3c2=O)CC1,cell number change,,19.4%
same,AC50,[2],"0.731 µM [rising, full curve, poor fit]"
same,AC50,[1],"2.91 µM [falling, single point]"
O=C(CSCc1ccc(F)cc1)NCc1ccco1,cell number change,,39%
same,AC50,[2],"29.1 µM [rising, single point]"
CCN(CC)S(=O)(=O)c1cc([N+](=O)[O-])ccc1NNC(=O)Nc1ccc(Cl)c(Cl)c1,cell number change,,-61.9%
same,AC50,[2],"20.6 µM [falling, single point]"
same,AC50,[1],"18.4 µM [falling, single point]"
O=C(Nc1ccc(C(=O)N2CCOCC2)cc1)c1cc(-c2cccnc2)nc2ccc(Br)cc12,cell number change,,24%
same,AC50,[2],"0.13 µM [falling, full curve, poor fit]"
same,AC50,[1],"0.092 µM [falling, full curve, poor fit]"
CCOc1ccc(CCNC(=O)c2ccc3c(=O)[nH]c4c(C(=O)NC(C)C)sc(=S)n4c3c2)cc1,cell number change,,-19.4%
same,AC50,[1],"0.92 µM [falling, full curve, poor fit]"
O=S1(=O)CCC(N2CCOCC2)C1 (stereo not given),cell number change,,-28.5%
same,AC50,[1],"29.1 µM [falling, partial curve]"
Cc1cccc(NC(=O)CSc2nnc(CCC(=O)Nc3ccc(C)c(Cl)c3)n2C)c1,cell number change,,-81.2%
same,AC50,[2],"29.1 µM [falling, single point]"
O=C(NCCOCc1ccccc1)C(c1ccccc1)c1ccccc1,cell number change,,-58.2%
O=C(c1ccc(CNS(=O)(=O)c2ccccc2)cc1)N1CCN(Cc2ccccc2)CC1,cell number change,,6.03%
same,AC50,[1],"3.26 µM [falling, partial curve]"
C=CCOc1ccccc1CN(CCc1ccccc1)C(=O)c1cccc(S(C)(=O)=O)c1,AC50,[1],"6.51 µM [falling, single point]"
Cn1cc(/C=C(\NC(=O)c2ccccc2Cl)C(=O)NCCN2CCOCC2)c2ccccc21,cell number change,,-6.6%
same,AC50,[1],"6.51 µM [rising, single point]"
COc1cc(C(=O)NCc2nnc(SCC(=O)NCCc3ccccc3)o2)cc(OC)c1OC,cell number change,,36%
same,AC50,[2],"29.1 µM [rising, single point]"
same,AC50,[1],"29.1 µM [rising, single point]"
COc1ccc(C)cc1NC(=O)c1cc2c(=O)n3ccccc3nc2n1C,cell number change,,7.56%
same,AC50,[1],"2.91 µM [rising, single point]"
COc1ccc(N=Cc2[nH]c3ccccc3c2O)cc1,cell number change,,-37.6%
same,AC50,[2],"0.206 µM [falling, full curve, poor fit]"
same,AC50,[1],"32.6 µM [falling, single point]"
COc1ccc(/C=N/Nc2cc(C)nc3ccc(OC)cc23)c(OC)c1,cell number change,,-67.6%
same,AC50,[2],"11.6 µM [falling, partial curve]"
CCC(C)N(C(=O)COC(=O)COc1c(C)cc(C)cc1C)C1CCS(=O)(=O)C1 (stereo not given),cell number change,,-24%
Cc1cc(C)nc(N2C(=O)CC(C(=O)O)NC2=NCCc2c[nH]c3ccccc23)n1 (stereo not given),cell number change,,8.24%
COc1ccc(C(=O)N2CCN(C3CCCCC3)CC2)c(OC)c1,cell number change,,-8.09%
same,AC50,[1],"25.9 µM [rising, single point]"
Cc1ccc(C(=O)NC2CCCCNC2=O)cc1C (stereo not given),cell number change,,30.4%
same,AC50,[2],"0.00411 µM [rising, full curve, poor fit]"
same,AC50,[1],"16.4 µM [rising, partial curve, poor fit]"
CCOC(=O)c1ccc(-c2ccc3c(=O)c4ccccc4n(C)c3c2)cc1F,AC50,[1],"29.1 µM [rising, single point]"
COc1ccc(NCc2ccccc2[N+](=O)[O-])cc1OC,cell number change,,15.1%
O=[N+]([O-])c1ccc(O)c(CN2CCCCCC2)c1,cell number change,,-15%
COc1ccc(NC(=O)Cn2nnc(C(=O)NCc3ccco3)c2N)c(OC)c1,cell number change,,-6.25%
same,AC50,[2],"1.3 µM [falling, full curve]"
CC(=O)Nc1ccc2nc(NC(=O)CN3CCOCC3)sc2c1,cell number change,,15.3%
same,AC50,[1],"6.51 µM [falling, single point]"
CCOc1ccc(-n2cnnn2)cc1S(=O)(=O)NCc1ccccc1,cell number change,,-10%
same,AC50,[1],"29.1 µM [falling, single point]"
Cc1cccc(N(C)C(=O)c2cc3cc4ccc(C)cc4nc3o2)c1,AC50,[2],"6.51 µM [rising, single point]"
same,AC50,[1],"0.58 µM [falling, single point]"
O=C(/C=C/c1cnc2ccccc2n1)NC12CC3CC(CC(C3)C1)C2,cell number change,,-15.1%
CC(C)C[C@@H](C(=O)NCC1CCCO1)N1C(=O)N2CCc3c([nH]c4ccccc34)[C@@]2(C)C1=O (stereo not given in full),cell number change,,0.647%
same,AC50,[1],"29.1 µM [falling, single point]"
Cc1ccc(C)c(Cn2c(=O)c3c(nc4n3CCN4Cc3ccco3)n(C)c2=O)c1,cell number change,,103%
O=C(Nc1cccc(Cl)c1)Nn1cnnc1,cell number change,,10.9%
same,AC50,[1],"18.4 µM [falling, partial curve, poor fit]"
Cc1ccc2[nH]c3c(NCc4ccccc4)ncnc3c2c1,cell number change,,-30.6%
same,AC50,[2],"29.1 µM [falling, single point]"
Cc1ccc(CNC(=O)c2cn(C3CCCC3)c(=O)c3c2c2ccccc2n3C)o1,cell number change,,38.4%
same,AC50,[2],"29.1 µM [rising, single point]"
CCOC(=O)c1c(CSc2ccccc2)oc2ccc(O)cc12,cell number change,,-59.9%
same,AC50,[2],"20.6 µM [falling, single point]"
same,AC50,[1],"14.6 µM [falling, partial curve, poor fit]"
CCOc1ccc(CCNC(=O)c2cc(-c3ccccc3)c(N3CCOCC3)s2)cc1OCC,cell number change,,4.44%
same,AC50,[1],"23.1 µM [falling, single point]"
Cc1ccc(C(=O)NCCCN2CCOCC2)cc1S(=O)(=O)N1CCCCC1,cell number change,,-3.2%
same,AC50,[1],"16.4 µM [falling, single point]"

# 5 consecutive entries already listed, quoted:
structure (smiles),measurement,setting,value
O=C(NCCOCc1ccccc1)C(c1ccccc1)c1ccccc1,cell number change,,-58.2%
O=C(c1ccc(CNS(=O)(=O)c2ccccc2)cc1)N1CCN(Cc2ccccc2)CC1,cell number change,,6.03%
same,AC50,[1],"3.26 µM [falling, partial curve]"
C=CCOc1ccccc1CN(CCc1ccccc1)C(=O)c1cccc(S(C)(=O)=O)c1,AC50,[1],"6.51 µM [falling, single point]"
Cn1cc(/C=C(\NC(=O)c2ccccc2Cl)C(=O)NCCN2CCOCC2)c2ccccc21,cell number change,,-6.6%
